Source: PMC7265341, “Quantifying CDK inhibitor selectivity in live cells” (Nature Communications, 2020)
Several values for one entry are separate records, joined by “and”; a condition that tells them apart may be missing. Identical values can stand only once. Further values from the same series stand in other lists.

Chains of the proteins cited; added tags and fusions are not shown. Lines headed by an entry give the natural chain unless they say otherwise; changes in a name come on top.
UniProt P50613: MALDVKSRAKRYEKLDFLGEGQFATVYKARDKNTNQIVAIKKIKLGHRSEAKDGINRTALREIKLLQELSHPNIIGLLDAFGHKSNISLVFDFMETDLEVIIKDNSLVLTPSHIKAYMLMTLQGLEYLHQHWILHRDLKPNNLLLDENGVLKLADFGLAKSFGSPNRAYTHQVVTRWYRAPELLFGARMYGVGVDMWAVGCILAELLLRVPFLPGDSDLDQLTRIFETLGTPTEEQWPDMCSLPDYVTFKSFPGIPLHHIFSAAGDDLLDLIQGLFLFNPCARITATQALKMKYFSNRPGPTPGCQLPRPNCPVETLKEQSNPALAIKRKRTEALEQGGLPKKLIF

Biological target: CDK7 (Homo sapiens, UniProt P50613)
Experiment: Intracellular residence time by cellular washout, CDK7
Assay type: binding
Conditions: Panel B
Description: However, residence times for this and many of the other CDKi’s in our panel have not been reported in cell-free or cellular contexts. […] This condition was selected to ensure adequate target occupancy prior to compound washout. Residence time was then evaluated by a rapid compound washout procedure, followed by addition of energy transfer probe 1. Under these conditions, the rate of the energy transfer signal increase serves as a direct proxy for the loss of the target-CDKi interaction[18],[56],[57].
Residence time was qualitatively assessed via a cellular washout approach, where delayed energy probe association is used as an indirect measurement for the durability of target/compound engagement. […] After 2 h of incubation at 37 °C, the medium was aspirated from the cells and replaced with fresh OptiMEM containing NanoBRET NanoGlo Substrate and Extracellular NanoLuc Inhibitor. […] Occupancy values were plotted as a function of time.
Supplementary Figure 22. […] Residence […]
time was qualitatively assessed by cellular washout as described in the method details and compared to association of energy transfer probe in cells treated with DMSO vehicle. […]
engagement at CDK6 and kinetic selectivity for CDK6 compared to CDK2 and CDK7. BRET ratios were normalized between the maximum BRET value vs BRET value in the absence of tracer. Kinetic traces and individual points are mean of 3 independent experiments ± S.E.M (n = 3). Source data are provided as a […]

COCCN1CCN(Cc2ccc(-c3n[nH]c4c3C(=O)c3c(NC(=O)NN5CCOCC5)cccc3-4)cc2)CC1 [RGB286638]
CDK7 (Time (Min) 41.9753): 75.102 and 91.6667 | CDK7 (Time (Min) 44.9758): 90.2344 and 75.6463 and 98.2143 | CDK7 (Time (Min) 47.9761): 90.5812 and 75.6463 and 95.5357 | CDK7 (Time (Min) 50.9766): 90.3038 and 76.1905 and 93.006 | CDK7 (Time (Min) 53.9771): 91.4135 and 76.0544 and 98.3631 | CDK7 (Time (Min) 56.9772): 90.2344 and 75.9184 and 90.9226 | CDK7 (Time (Min) 59.9777): 91.3442 and 77.1429 and 90.625 | CDK7 (Time (Min) 62.9781): 89.6796 and 76.8708 and 95.5357 | CDK7 (Time (Min) 65.9785): 88.7779 and 75.8503 and 90.1786 | CDK7 (Time (Min) 68.9792): 90.0957 and 76.8708 and 93.4524 | CDK7 (Time (Min) 71.9792): 91.2054 and 76.8708 and 93.6012 | CDK7 (Time (Min) 74.9799): 90.1651 and 77.8912 and 92.4107 | CDK7 (Time (Min) 77.9802): 89.8183 and 79.1837 and 90.625 | CDK7 (Time (Min) 80.9806): 89.957 and 79.932 and 91.8155 | CDK7 (Time (Min) 83.9813): 90.5119 and 81.6326 and 91.9643 | CDK7 (Time (Min) 86.9817): 88.2231 and 82.517 and 86.0119 | CDK7 (Time (Min) 89.9825): 88.2924 and 82.7211 and 83.1845 | CDK7 (Time (Min) 92.9826): 88.9166 and 82.9932 and 85.7143 | CDK7 (Time (Min) 95.9831): 87.4601 and 82.9932 and 87.3512 | CDK7 (Time (Min) 98.9837): 87.5295 and 84.8299 | CDK7 (Time (Min) 101.984): 87.3908 and 82.9932 and 87.2024 | CDK7 (Time (Min) 104.984): 86.3504 and 84.8299 and 84.0774 | CDK7 (Time (Min) 107.985): 87.6682 and 88.0272 and 80.9524 | CDK7 (Time (Min) 110.985): 86.6972 and 87.0748 and 88.0952 | CDK7 (Time (Min) 113.986): 87.3908 and 83.1973 and 78.869 | CDK7 (Time (Min) 116.986): 86.2117 and 89.1157 and 90.7738 | CDK7 (Time (Min) 119.987): 86.8359 and 88.5714 and 81.8452 | CDK7 (Time (Min) 122.987): 85.0326 and 89.5238 and 78.869 | CDK7 (Time (Min) 125.988): 85.31 and 89.932 and 87.5 | CDK7 (Time (Min) 128.988): 86.3504 and 89.7959 and 85.2679 | CDK7 (Time (Min) 131.988): 85.7262 and 89.5918 and 88.6905 | CDK7 (Time (Min) 134.989): 85.1713 and 87.0748 and 78.125 | CDK7 (Time (Min) 137.989): 86.4198 and 82.7211 and 86.1607 | CDK7 (Time (Min) 140.99): 85.3794 and 77.2109 and 79.7619 | CDK7 (Time (Min) 143.99): 84.6858 and 73.8095 and 70.3869 | CDK7 (Time (Min) 146.99): 85.5181 and 74.0816 and 73.0655 | CDK7 (Time (Min) 149.991): 84.6165 and 72.585 and 76.0417 | CDK7 (Time (Min) 152.992): 73.6054 | CDK7 (Time (Min) 152.992, listed as RGB-286638): 85.102 and 83.3333 | CDK7 (Time (Min) 155.992): 83.8535 and 72.6531 and 74.4048 | CDK7 (Time (Min) 158.992): 84.6858 and 72.3809 and 63.6905 | CDK7 (Time (Min) 161.993): 82.7438 and 71.5646 and 91.0714 | CDK7 (Time (Min) 164.993): 84.2003 and 72.9932 and 81.994 | CDK7 (Time (Min) 167.994): 83.7842 and 72.449 and 84.5238 | CDK7 (Time (Min) 170.994): 81.9809 and 72.7211 and 75.8929 | CDK7 (Time (Min) 173.995): 83.2987 and 72.3809 and 89.4345 | CDK7 (Time (Min) 176.995): 77.9762 | CDK7 (Time (Min) 176.995, listed as RGB-286638): 84.4777 and 71.7007 | CDK7 (Time (Min) 179.995): 83.4374 and 71.1565 and 72.0238 | CDK7 (Time (Min) 182.996): 82.397 and 71.9048 and 80.9524 | CDK7 (Time (Min) 185.996): 84.0616 and 71.9048 and 80.0595 | CDK7 (Time (Min) 188.996): 82.397 and 70.8843 and 78.125 | CDK7 (Time (Min) 191.996): 82.3276 and 72.3129 and 72.4702 | CDK7 (Time (Min) 194.996): 83.9922 and 71.3605 and 63.8393 | CDK7 (Time (Min) 197.996): 82.6744 and 71.0884 and 75.744 | CDK7 (Time (Min) 200.996): 82.397 and 72.6531 and 83.631 | CDK7 (Time (Min) 203.996): 84.8245 and 71.2245 and 73.2143 | CDK7 (Time (Min) 206.996): 84.0616 and 72.7211 and 70.0893 | CDK7 (Time (Min) 209.996): 82.2583 and 70.8163 and 74.5536 | CDK7 (Time (Min) 212.996): 81.9115 and 72.2449 and 71.2798 | CDK7 (Time (Min) 215.996): 80.9405 and 71.9048 and 68.006 | CDK7 (Time (Min) 218.996): 81.9809 and 69.6599 and 69.6429 | CDK7 (Time (Min) 221.996): 80.6631 and 69.7959 and 77.0833 | CDK7 (Time (Min) 224.996): 80.3856 and 71.0204 and 77.6786 | CDK7 (Time (Min) 227.996): 84.7552 and 72.585 and 64.881 | CDK7 (Time (Min) 230.996): 80.6631 and 70.6122 and 72.1726
